Data from paper PMC12864892.
No constants are given. Whether binding was seen depends on the method and setting. In cells and extracts the contact can be indirect. Some binding calls cover weakened binding; strength is not graded here. For part of these data: Where a sequence is shown, tags or fusion partners need not be part of it. Blank lines part the entries; values can stand above or below the molecule they belong to.

Protein sequences, listed by entry. Tags and fused reporters are not part of them. Residues count along the entry.
UniProt P10909, residues 23-449: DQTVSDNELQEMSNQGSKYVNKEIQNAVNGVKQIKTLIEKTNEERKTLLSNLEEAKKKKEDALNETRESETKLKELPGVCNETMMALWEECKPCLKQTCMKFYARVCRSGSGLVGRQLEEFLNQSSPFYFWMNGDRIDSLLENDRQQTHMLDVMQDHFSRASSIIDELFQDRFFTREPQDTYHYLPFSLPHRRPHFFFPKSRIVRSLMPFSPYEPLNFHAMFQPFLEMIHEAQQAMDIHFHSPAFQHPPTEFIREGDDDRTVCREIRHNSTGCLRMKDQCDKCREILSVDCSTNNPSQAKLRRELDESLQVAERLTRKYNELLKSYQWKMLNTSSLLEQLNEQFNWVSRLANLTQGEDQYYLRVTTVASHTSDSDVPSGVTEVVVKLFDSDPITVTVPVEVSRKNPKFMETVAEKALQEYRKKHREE
UniProt P98164, residues 26-4655: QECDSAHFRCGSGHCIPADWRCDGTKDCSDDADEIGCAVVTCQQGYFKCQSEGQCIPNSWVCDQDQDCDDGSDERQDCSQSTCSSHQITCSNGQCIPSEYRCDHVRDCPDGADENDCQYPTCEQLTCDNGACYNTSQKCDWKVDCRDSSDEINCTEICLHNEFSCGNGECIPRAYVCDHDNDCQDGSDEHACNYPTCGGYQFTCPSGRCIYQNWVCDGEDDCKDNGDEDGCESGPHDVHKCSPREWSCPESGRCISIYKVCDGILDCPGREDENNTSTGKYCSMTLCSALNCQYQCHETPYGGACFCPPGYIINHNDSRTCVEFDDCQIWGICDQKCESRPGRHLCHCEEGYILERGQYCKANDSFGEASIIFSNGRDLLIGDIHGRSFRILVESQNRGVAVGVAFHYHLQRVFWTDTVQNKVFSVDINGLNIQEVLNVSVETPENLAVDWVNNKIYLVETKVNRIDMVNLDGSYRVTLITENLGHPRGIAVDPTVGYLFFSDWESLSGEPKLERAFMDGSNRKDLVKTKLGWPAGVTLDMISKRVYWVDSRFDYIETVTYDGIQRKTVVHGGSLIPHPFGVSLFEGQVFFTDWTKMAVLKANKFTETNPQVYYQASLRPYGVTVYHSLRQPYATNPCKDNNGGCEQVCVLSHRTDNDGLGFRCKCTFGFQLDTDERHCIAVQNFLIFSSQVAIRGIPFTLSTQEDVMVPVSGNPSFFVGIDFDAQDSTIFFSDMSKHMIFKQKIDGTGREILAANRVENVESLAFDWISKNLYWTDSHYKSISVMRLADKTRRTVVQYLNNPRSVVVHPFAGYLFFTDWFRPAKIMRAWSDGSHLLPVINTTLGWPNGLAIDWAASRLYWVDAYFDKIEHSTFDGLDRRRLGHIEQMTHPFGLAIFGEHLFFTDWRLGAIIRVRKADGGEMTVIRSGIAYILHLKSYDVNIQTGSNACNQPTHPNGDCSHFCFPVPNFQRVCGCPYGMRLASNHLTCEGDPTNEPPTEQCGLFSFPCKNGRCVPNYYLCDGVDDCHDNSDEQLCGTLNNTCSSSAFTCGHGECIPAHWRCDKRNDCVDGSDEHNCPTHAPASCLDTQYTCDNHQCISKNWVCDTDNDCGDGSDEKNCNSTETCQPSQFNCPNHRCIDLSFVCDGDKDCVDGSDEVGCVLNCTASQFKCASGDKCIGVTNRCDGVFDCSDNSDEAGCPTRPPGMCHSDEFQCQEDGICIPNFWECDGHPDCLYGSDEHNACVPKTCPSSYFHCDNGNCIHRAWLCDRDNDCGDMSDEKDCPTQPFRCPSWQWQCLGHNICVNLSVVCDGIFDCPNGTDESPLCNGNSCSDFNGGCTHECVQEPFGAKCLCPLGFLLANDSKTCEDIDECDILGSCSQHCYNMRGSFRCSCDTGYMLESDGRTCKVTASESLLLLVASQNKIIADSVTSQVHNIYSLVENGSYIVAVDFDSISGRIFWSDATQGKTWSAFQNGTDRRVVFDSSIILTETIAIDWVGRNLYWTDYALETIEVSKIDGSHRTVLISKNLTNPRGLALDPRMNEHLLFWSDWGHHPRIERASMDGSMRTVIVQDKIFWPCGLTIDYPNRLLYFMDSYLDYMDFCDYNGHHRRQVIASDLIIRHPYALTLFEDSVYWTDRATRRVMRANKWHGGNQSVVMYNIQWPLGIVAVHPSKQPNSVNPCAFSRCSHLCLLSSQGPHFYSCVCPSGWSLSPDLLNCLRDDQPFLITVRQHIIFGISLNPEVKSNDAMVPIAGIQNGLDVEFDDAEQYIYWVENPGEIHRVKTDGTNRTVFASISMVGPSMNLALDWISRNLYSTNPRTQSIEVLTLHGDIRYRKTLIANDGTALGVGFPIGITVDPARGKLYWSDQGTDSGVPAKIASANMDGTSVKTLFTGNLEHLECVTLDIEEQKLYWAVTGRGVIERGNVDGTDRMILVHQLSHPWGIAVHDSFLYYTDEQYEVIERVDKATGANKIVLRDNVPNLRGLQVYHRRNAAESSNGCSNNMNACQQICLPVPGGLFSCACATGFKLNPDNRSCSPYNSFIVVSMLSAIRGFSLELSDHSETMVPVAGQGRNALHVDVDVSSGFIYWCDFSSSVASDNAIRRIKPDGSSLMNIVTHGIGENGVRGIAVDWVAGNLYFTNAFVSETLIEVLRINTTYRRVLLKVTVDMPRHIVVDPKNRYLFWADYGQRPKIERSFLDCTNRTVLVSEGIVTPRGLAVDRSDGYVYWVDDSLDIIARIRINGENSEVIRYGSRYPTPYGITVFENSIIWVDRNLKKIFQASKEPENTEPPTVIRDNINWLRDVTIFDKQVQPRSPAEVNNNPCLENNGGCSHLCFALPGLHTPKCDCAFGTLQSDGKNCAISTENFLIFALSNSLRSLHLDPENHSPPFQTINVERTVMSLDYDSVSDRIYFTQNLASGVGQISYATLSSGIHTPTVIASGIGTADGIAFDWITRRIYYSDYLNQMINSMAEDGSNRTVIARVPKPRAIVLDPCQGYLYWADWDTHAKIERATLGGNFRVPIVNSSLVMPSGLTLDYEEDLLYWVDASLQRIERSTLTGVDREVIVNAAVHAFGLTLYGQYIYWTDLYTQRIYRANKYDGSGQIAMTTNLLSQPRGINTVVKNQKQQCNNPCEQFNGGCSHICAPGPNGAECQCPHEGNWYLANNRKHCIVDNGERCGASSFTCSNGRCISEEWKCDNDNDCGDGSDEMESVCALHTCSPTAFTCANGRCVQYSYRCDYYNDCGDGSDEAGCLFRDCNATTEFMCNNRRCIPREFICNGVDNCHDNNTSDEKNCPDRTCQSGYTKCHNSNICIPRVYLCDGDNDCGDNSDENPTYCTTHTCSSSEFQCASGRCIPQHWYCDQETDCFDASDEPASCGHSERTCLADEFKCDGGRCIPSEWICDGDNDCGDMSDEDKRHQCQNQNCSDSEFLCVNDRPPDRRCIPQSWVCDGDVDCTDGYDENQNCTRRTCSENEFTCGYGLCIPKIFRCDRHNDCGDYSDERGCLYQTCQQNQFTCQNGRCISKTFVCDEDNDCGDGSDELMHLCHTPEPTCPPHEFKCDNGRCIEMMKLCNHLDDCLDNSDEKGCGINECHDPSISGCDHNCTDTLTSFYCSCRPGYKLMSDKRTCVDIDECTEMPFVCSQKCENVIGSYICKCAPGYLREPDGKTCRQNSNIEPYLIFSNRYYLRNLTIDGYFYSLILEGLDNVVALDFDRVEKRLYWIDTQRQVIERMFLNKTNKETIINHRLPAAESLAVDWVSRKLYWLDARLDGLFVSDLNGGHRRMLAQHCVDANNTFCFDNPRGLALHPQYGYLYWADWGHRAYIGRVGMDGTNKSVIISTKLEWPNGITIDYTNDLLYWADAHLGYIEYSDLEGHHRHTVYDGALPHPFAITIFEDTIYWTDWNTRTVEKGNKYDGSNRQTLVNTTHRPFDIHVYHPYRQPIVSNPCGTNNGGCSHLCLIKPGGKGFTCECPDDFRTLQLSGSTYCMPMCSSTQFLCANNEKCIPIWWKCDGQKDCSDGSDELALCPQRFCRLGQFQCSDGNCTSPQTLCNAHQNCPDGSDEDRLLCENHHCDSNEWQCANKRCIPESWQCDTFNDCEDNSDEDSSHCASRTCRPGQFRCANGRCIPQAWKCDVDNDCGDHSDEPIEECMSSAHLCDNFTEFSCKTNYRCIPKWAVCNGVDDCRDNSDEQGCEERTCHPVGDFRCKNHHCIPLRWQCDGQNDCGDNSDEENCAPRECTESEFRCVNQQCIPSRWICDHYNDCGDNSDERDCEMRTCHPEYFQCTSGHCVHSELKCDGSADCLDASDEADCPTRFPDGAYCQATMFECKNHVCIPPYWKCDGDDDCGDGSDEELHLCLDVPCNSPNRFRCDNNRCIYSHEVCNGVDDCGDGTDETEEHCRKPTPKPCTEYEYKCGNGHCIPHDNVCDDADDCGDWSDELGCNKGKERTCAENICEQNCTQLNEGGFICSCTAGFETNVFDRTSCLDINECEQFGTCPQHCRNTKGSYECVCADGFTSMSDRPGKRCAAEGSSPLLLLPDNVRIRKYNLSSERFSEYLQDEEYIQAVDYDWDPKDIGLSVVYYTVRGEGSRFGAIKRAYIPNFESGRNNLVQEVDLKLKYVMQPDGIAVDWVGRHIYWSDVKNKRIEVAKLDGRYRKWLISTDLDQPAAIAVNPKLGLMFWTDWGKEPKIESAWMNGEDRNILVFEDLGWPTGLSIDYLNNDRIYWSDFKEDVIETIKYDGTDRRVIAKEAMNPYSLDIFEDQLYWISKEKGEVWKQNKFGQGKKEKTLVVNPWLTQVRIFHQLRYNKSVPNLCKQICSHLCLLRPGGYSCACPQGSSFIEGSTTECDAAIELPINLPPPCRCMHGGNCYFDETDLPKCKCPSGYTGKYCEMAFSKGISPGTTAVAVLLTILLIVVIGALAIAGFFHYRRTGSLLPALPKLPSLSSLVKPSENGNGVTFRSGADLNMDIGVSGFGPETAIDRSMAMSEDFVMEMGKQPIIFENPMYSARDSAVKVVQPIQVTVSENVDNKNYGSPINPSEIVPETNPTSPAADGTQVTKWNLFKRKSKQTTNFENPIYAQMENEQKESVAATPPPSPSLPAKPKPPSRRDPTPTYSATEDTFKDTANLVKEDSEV

How the values were obtained:
[1] = target: clusterin (CLU), endogenous in TNBC cells (human (endogenous in MDA-MB-468 and MDA-MB-231)) (UniProt P10909); test: co-IP; endogenous proteins in MDA-MB-468 and MDA-MB-231 lysates, with or without PKP3 knockdown; antibody-conjugated beads, 4 °C for 12 h; Western blot
HA-tagged CLU = HA-tagged CLU (UniProt P10909); test: co-IP; HEK293T (293T) cells overexpressing HA-CLU or its truncates and FLAG-PKP3 or its truncates; anti-FLAG and anti-HA antibodies; Western blot

binding [1]: binds
Molecule: LRP2 (from UniProt P98164 26-4655) (receptor)

binding [1]: binds
B1: plakophilin 3 (PKP3), endogenous in TNBC cells (protein, UniProt Q9Y446 1-797)
chain: MQDGNFLLSALQPEAGVCSLALPSDLQLDRRGAEGPEAERLRAARVQEQVRARLLQLGQQPRHNGAAEPEPEAETARGTSRGQYHTLQAGFSSRSQGLSGDKTSGFRPIAKPAYSPASWSSRSAVDLSCSRRLSSAHNGGSAFGAAGYGGAQPTPPMPTRPVSFHERGGVGSRADYDTLSLRSLRLGPGGLDDRYSLVSEQLEPAATSTYRAFAYERQASSSSSRAGGLDWPEATEVSPSRTIRAPAVRTLQRFQSSHRSRGVGGAVPGAVLEPVARAPSVRSLSLSLADSGHLPDVHGFNSYGSHRTLQRLSSGFDDIDLPSAVKYLMASDPNLQVLGAAYIQHKCYSDAAAKKQARSLQAVPRLVKLFNHANQEVQRHATGAMRNLIYDNADNKLALVEENGIFELLRTLREQDDELRKNVTGILWNLSSSDHLKDRLARDTLEQLTDLVLSPLSGAGGPPLIQQNASEAEIFYNATGFLRNLSSASQATRQKMRECHGLVDALVTSINHALDAGKCEDKSVENAVCVLRNLSYRLYDEMPPSALQRLEGRGRRDLAGAPPGEVVGCFTPQSRRLRELPLAADALTFAEVSKDPKGLEWLWSPQIVGLYNRLLQRCELNRHTTEAAAGALQNITAGDRRWAGVLSRLALEQERILNPLLDRVRTADHHQLRSLTGLIRNLSRNARNKDEMSTKVVSHLIEKLPGSVGEKSPPAEVLVNIIAVLNNLVVASPIAARDLLYFDGLRKLIFIKKKRDSPDSEKSSRAASSLLANLWQYNKLHRDFRAKGYRKEDFLGP

binding (HA-tagged CLU): binds
B2: FLAG-tagged PKP3 (protein, UniProt Q9Y446 1-797)
chain: B1 chain
